These results are taken from patent US5571685A (priority 1992, dated 1996).

Chains of the proteins cited; added tags and fusions are not shown.
UniProt Q51990, entry or part of it: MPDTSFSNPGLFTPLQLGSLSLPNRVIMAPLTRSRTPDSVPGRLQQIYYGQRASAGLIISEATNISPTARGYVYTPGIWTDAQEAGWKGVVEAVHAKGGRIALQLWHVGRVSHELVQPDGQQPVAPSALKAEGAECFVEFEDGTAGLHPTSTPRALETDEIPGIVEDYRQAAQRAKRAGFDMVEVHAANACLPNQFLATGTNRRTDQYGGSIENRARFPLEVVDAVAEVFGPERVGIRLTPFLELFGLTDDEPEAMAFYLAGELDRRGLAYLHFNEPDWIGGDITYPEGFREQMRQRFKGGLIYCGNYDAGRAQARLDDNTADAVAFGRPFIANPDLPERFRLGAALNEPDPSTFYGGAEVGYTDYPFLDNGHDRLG

This experiment has as its target morphinone reductase (Pseudomonas putida, UniProt Q51990).

In the case of `CN1CC[C@]23c4c5ccc(O)c4O[C@H]2[C@@H](O)C=C[C@H]3[C@H]1C5` [morphine], the “Enzyme activity against compound as substrate” value is “No activity”.
